Here are results for 1 substance from paper doi:10.1101/2022.07.20.500724.

Chains of the proteins cited; added tags and fusions are not shown.
UniProt Q13485: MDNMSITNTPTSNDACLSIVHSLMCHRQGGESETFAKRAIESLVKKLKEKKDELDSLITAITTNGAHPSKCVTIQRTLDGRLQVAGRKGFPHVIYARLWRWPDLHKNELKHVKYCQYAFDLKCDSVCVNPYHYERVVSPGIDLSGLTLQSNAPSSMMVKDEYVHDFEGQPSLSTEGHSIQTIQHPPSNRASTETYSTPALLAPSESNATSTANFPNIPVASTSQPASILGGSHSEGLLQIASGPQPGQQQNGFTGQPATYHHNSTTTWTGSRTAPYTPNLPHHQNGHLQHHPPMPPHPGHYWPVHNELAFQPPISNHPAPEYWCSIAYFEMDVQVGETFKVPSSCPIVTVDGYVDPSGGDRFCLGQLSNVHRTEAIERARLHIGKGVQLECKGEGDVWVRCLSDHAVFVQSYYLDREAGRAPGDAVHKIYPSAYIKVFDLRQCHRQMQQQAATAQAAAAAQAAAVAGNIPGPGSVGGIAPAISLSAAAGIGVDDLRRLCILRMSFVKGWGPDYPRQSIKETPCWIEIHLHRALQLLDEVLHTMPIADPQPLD
UniProt P46379: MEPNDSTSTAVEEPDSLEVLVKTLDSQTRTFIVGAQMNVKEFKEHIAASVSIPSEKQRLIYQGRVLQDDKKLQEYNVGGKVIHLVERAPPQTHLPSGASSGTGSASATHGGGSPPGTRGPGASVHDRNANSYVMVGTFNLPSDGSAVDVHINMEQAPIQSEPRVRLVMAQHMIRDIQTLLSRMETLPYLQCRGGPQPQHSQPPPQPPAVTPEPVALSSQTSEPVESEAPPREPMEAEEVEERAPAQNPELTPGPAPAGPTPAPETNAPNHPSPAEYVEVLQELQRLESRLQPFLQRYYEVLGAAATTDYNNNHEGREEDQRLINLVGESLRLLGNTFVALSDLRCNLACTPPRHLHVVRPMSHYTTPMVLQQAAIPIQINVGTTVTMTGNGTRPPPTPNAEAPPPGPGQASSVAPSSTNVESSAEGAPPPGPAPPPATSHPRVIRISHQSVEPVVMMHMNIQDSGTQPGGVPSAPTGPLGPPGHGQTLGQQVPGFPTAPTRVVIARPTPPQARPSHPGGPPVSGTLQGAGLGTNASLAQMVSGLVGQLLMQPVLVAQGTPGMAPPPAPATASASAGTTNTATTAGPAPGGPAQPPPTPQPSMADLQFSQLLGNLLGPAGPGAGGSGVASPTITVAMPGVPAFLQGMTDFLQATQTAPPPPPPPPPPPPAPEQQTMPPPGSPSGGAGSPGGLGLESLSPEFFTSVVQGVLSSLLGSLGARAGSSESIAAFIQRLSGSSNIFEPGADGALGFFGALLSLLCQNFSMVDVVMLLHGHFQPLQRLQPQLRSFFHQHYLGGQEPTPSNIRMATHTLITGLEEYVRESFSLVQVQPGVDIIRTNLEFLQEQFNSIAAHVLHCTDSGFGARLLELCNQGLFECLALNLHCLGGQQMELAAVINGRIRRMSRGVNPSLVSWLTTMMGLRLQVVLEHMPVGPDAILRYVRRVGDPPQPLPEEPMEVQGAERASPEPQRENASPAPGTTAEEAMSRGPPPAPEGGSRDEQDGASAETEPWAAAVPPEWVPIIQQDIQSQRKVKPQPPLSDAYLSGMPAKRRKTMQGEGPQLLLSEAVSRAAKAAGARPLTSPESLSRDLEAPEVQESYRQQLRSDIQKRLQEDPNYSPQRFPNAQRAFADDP

Results are given in words; binding and its absence hold for the method and conditions named. Binding seen in cells or lysates may run through a third protein.

The test has as its target SMAD4 wild-type protein (human (endogenous in HEK293T)) (UniProt Q13485). The experiment in a line: co-IP.

In the case of BAG6 (from UniProt P46379 1-1132), the binding result was “no binding”.
